The source of these data is the supplement of paper PMC10338343.

± gives the standard deviation. Some of the results follow. Many entries were measured with a wide error.

One assay deals with EfPiwi piRISC loaded with L1MC piRNA (26 nt). The experiment in a line: pre-steady-state target cleavage rate (min^-1); guide: L1MC piRNA 5'p-UAACUAAAUACUAUGCAAGCUGUAGG; MIWI and MILI are mouse PIWI proteins and EfPiwi is from a freshwater sponge; tags in brackets are library labels; higher = faster piRNA-guided slicing of the target. The note with it: auxiliary factor: 500 nM Ephydatia muelleri Gtsf1. An outline of the steps:
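In HEPES–potassium acetate buffer at 33 °C, […] transcribed, DNA-blocked target RNA library was mixed with 1 nM active affinity-purified piRISC carrying one synthetic guide, with or without 500 nM GTSF1 partner protein, for 0–8 or 0–960 min. Uncleaved targets were sequenced and normalised to depth and to weakly complementary targets; three trials were pooled and k3 was capped at 0.0001 min^-1. The pre-steady-state cleavage rate followed from a burst-and-steady-state fit.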
On to UCCUCCUACAGCUUGCAAAGUAUUUACUUA, for which the “pre-steady-state target cleavage rate” value stood at 0.00282 ± 0.0024.

Take UCCUGGAUGUCCUUGCAUAGUCAUUUAGUUA: the “pre-steady-state target cleavage rate” value came to 0.000352 ± 0.0076.

For the sequence UCCUGGAUGUCGAACGUUAGUAAUUAGAUA, the “pre-steady-state target cleavage rate” value was determined as 0.000196 ± 0.029.

In the case of UCCUGGAUCAGCAUGCAUAGUAUUUACUUA, the “pre-steady-state target cleavage rate” value came to 0.00233 ± 0.0029.

Turning to UCCUGGAUCAGCUUGCAUAGUAUUUAGAAA, the “pre-steady-state target cleavage rate” value was 0.00346 ± 0.0016.

On to “UCCUGGAUGUCGAAGCAUAGUAUUUAGUUG [g2:g16:cont:t1G]”, for which the “pre-steady-state target cleavage rate” value stood at 0.00123 ± 0.0061.

On to UCCUCGUAGAGCUUGCAUAGUAUUUAGUUA, for which the “pre-steady-state target cleavage rate” value was determined as 0.0385 ± 0.0086.

Consider “UCCUGGAUGUCGAACGUUAGUAUUUUCAAA [g6:g13:cont:t1A]”, for which the “pre-steady-state target cleavage rate” value was less than 0.0001.

For UCCUGGAUCAGCAUGCAUAGUAUUUAGUAA, the “pre-steady-state target cleavage rate” value stood at 0.00497 ± 0.0029.

Turning to UCCUGGAUGUCGAACGAUACUAUUUUGUUA, the “pre-steady-state target cleavage rate” value was less than 0.0001.

In the case of UCCUCCUACAGCUUGGAAAGUAUUUAGUUA, the “pre-steady-state target cleavage rate” value was 0.0615 ± 0.013.

With UCCUGGUACAGCUUCAUAGUAUUUAGUUA, the “pre-steady-state target cleavage rate” value was 0.0159 ± 0.0055.

On to UCCUGGAUCUCCUUGCAUAGUAUUUAGUUA, for which the “pre-steady-state target cleavage rate” value was 0.0227 ± 0.0066.

UCCUGGUACAGCUUGCAAAGUAUUUAGUUA: the “pre-steady-state target cleavage rate” value amounted to 0.0101 ± 0.0035.

For the sequence UCCUGGAUGUCCUUGCAUAGUCUUUAGUUA, the “pre-steady-state target cleavage rate” value was 0.00326 ± 0.0014.

Consider UCCUGGAUGUCGUUGGAUAGUAUUUAGUAA, for which the “pre-steady-state target cleavage rate” value is 0.000148 ± 0.05.

For UCCUGGAUGUCGAACGUUACUAUUAAGUUA, the “pre-steady-state target cleavage rate” value was 0.000256 ± 0.018.

For UCCUGGAUCAGCUUGCAUAGUAUUAAGUUA, the “pre-steady-state target cleavage rate” value was 0.0323 ± 0.0094.

For the sequence UCCUGGAUCUGCUUGCAUAGUAUUUAGUUA, the “pre-steady-state target cleavage rate” value amounted to 0.116 ± 0.023.

UCCUGGAUGUCGAACGUAAGUAUGUUAGUUA: the “pre-steady-state target cleavage rate” value amounted to 0.000204 ± 0.022.

Consider UCCUGCUACAGCUAUGCAUAGUAUUUAGUUA, for which the “pre-steady-state target cleavage rate” value was 0.012 ± 0.0044.

Take UCCUGGUACAGGAUGCAUAGUAUUUAGUUA: the “pre-steady-state target cleavage rate” value was determined as 0.00598 ± 0.003.

On to UCCUGGAUGUCGAACGAUAGUAUUGAGUUA, for which the “pre-steady-state target cleavage rate” value is 0.000129 ± 0.05.

As to UCCUCCUACAGGAUGCAUAGUAUUUAGUAA, the “pre-steady-state target cleavage rate” value turned out to be 0.0119 ± 0.0048.

Consider UCCUGGAUCAGGUUGCAAAGUAUUUAGUUA, for which the “pre-steady-state target cleavage rate” value came to 0.0172 ± 0.0054.

Turning to UCCUCCUACAGCUAGCAUAGUAUUUAGUAA, the “pre-steady-state target cleavage rate” value came to 0.005 ± 0.0022.

For the sequence UCCUCCUACUGCAUGCAUAGUAUUUAGUUA, the “pre-steady-state target cleavage rate” value came to 0.0706 ± 0.019.

With UCCUGCUACAGCUUGGUUAGUAUUUAGUAA, the “pre-steady-state target cleavage rate” value was 0.00273 ± 0.0024.

UCCUGGUACAGUUGCAUAGUAUUUAGUUA: the “pre-steady-state target cleavage rate” value stood at 0.0124 ± 0.0051.

In the case of UCCUGGAUGAGCUUGGAUAGUAUUUAGUAA, the “pre-steady-state target cleavage rate” value came out at 0.00277 ± 0.003.

As to UCCUGGAUCAGCUUGCAUAGUAUUUAGUGA, the “pre-steady-state target cleavage rate” value was determined as 0.0182 ± 0.0068.

Take UCCUGGAUCAGCUUGCAUAGUAUUAAGAAA: the “pre-steady-state target cleavage rate” value was 0.00459 ± 0.0022.

As for UCCUGGAUCAGCUUGCUUAGUAAUUAGUUA, the “pre-steady-state target cleavage rate” value turned out to be 0.0988 ± 0.033.

As for UCCUGGUACAGCUUGGAUAGUAUUUUGUUA, the “pre-steady-state target cleavage rate” value is 0.0013 ± 0.0078.

Staying with this assay, now noted: auxiliary factor: none (no Gtsf1).
In the case of UCCUGCUACAGCUUGCAUUGUAUUUACUUA, the “pre-steady-state target cleavage rate” value was found to be 0.000339 ± 0.017.

In the case of UCCUGGAUAAGCUUGCAUAGUAUUUAGUUA, the “pre-steady-state target cleavage rate” value amounted to 0.000681 ± 0.018.

As to UCCUGGUACAGCUUGCAUAGUUAUUAGUUA, the “pre-steady-state target cleavage rate” value is 0.000939 ± 0.0097.

For UCCUGGAUGUCGAACCAUACGUAUUUAGUUA, the “pre-steady-state target cleavage rate” value is less than 0.0001.

As to UCCUGGUACAGCUUGCAAUCUAUUUAGUUA, the “pre-steady-state target cleavage rate” value came to 0.000288 ± 0.028.

Consider UCCUGGAUGUCGAACCAUUGUAUUAAGUUA, for which the “pre-steady-state target cleavage rate” value stood at 0.000249 ± 0.026.
